The supplement of paper PMC10849652
The list shows a part of the results.

By UniProt entry, the sequences of proteins in these tests, tags left out. Where a name states a change or a piece, a line headed by the entry shows the natural chain unless it says otherwise.
UniProt A6NHX0: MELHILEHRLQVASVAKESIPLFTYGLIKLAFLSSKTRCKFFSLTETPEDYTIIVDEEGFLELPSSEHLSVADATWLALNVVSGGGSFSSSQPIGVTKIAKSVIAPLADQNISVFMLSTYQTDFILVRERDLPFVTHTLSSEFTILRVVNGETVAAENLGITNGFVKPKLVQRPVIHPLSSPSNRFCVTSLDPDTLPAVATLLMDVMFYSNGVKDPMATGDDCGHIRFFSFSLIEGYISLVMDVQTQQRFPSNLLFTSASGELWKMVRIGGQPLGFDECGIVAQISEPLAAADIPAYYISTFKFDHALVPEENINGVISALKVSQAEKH
UniProt Q8IX12: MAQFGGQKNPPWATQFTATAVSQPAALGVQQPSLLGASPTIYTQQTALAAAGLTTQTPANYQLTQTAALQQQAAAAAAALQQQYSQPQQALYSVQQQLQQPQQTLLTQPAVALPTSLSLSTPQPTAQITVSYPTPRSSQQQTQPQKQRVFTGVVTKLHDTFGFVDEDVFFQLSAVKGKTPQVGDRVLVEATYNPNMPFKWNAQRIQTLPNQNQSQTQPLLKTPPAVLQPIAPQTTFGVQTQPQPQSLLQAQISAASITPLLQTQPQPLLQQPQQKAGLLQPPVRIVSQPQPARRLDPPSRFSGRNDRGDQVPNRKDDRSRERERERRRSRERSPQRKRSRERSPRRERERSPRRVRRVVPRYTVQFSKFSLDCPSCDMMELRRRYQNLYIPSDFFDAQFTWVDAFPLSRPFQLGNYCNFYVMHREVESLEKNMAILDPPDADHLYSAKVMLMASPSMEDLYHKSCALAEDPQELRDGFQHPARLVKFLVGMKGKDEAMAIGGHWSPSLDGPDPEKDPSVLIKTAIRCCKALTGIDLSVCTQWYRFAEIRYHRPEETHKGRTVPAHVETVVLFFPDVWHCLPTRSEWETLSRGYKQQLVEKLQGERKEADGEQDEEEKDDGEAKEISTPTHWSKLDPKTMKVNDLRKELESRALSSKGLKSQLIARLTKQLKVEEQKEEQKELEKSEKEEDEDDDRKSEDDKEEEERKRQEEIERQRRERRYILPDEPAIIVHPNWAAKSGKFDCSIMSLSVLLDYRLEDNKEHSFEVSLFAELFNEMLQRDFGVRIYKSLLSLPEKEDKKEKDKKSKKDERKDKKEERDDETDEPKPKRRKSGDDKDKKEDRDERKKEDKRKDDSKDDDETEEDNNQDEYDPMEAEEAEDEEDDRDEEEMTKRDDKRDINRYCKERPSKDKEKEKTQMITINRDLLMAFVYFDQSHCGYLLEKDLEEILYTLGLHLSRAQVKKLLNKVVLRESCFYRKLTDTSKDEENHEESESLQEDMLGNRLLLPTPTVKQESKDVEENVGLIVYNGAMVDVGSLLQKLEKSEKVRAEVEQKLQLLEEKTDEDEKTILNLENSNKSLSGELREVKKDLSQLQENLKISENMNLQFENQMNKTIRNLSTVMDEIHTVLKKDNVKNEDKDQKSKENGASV
UniProt Q5T0F9: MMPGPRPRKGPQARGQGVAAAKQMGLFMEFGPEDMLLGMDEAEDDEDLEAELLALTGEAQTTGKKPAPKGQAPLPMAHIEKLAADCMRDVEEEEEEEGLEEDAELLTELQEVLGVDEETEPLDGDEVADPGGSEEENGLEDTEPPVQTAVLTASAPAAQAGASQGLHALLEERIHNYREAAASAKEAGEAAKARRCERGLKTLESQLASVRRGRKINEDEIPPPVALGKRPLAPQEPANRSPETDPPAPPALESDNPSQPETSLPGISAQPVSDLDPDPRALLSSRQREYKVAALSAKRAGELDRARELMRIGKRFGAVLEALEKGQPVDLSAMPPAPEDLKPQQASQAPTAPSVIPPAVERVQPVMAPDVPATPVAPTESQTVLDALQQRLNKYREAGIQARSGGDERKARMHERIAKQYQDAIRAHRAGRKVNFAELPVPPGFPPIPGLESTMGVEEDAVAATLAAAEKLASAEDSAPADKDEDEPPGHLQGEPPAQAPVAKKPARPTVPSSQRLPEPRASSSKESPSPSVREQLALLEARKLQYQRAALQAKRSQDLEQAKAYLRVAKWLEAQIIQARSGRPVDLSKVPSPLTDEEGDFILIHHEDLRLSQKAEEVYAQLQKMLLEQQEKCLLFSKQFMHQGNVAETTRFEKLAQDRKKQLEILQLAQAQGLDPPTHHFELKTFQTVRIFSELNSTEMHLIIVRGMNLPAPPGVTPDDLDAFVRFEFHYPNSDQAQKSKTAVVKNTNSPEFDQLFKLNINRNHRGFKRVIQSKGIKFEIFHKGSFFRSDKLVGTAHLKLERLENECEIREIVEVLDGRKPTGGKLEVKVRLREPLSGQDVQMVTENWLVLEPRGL
UniProt Q8N4S0: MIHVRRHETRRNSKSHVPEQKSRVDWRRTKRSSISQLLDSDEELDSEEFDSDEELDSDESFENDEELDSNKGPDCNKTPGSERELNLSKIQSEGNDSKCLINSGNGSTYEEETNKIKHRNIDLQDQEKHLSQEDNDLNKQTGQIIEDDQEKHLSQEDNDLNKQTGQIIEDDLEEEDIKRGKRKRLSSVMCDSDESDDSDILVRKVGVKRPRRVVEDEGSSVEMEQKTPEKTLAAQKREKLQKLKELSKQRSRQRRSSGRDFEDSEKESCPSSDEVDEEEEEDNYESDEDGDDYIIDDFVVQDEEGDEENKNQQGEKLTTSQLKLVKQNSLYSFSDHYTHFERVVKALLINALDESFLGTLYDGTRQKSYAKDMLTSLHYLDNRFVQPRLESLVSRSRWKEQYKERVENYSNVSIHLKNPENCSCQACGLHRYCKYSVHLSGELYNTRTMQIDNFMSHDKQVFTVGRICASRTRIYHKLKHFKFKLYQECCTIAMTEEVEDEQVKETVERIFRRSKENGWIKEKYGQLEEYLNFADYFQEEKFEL
UniProt Q7Z3E2: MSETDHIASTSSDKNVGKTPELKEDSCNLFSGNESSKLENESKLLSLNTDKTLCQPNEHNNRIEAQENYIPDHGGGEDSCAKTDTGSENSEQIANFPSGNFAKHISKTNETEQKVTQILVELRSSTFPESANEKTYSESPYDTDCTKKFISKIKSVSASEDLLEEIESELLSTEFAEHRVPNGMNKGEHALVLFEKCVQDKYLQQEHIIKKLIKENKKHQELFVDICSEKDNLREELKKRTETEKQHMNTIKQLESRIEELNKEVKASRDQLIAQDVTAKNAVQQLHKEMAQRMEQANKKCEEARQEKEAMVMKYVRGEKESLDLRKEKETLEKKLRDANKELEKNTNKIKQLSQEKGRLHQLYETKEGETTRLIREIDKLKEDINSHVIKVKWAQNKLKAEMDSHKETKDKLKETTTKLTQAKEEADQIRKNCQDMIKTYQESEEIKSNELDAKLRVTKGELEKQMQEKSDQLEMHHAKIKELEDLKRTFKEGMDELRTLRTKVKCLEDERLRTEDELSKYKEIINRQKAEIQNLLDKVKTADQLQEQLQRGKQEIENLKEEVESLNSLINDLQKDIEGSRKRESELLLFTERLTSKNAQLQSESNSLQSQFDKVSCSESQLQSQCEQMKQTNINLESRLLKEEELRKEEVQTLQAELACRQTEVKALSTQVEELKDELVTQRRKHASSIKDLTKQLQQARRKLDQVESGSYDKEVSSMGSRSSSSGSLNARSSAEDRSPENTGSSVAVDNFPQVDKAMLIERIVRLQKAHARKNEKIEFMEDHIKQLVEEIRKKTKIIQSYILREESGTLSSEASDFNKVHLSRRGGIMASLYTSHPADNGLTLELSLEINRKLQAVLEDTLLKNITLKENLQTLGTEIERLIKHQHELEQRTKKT
UniProt Q6NZI2: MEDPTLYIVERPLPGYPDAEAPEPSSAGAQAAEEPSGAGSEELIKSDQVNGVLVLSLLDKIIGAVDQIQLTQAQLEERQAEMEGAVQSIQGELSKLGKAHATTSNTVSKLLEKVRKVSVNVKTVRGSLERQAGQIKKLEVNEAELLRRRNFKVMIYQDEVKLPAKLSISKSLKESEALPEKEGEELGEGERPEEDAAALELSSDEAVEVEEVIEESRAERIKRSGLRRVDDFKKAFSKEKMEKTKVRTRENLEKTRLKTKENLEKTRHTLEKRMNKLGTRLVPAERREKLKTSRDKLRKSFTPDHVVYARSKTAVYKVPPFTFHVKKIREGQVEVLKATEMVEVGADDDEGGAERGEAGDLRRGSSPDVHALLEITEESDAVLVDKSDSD
UniProt Q13951, whole entry, looked up: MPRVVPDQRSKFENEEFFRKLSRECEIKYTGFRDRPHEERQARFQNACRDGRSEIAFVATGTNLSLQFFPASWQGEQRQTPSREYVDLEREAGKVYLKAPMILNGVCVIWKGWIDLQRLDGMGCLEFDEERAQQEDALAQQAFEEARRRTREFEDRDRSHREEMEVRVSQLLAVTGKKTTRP
UniProt Q96MW1: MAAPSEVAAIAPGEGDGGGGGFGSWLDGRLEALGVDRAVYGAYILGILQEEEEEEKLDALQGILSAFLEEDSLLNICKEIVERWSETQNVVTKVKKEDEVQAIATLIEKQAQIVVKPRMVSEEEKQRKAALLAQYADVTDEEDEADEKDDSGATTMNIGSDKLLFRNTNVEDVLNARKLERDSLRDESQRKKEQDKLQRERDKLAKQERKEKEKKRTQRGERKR
UniProt Q96A33: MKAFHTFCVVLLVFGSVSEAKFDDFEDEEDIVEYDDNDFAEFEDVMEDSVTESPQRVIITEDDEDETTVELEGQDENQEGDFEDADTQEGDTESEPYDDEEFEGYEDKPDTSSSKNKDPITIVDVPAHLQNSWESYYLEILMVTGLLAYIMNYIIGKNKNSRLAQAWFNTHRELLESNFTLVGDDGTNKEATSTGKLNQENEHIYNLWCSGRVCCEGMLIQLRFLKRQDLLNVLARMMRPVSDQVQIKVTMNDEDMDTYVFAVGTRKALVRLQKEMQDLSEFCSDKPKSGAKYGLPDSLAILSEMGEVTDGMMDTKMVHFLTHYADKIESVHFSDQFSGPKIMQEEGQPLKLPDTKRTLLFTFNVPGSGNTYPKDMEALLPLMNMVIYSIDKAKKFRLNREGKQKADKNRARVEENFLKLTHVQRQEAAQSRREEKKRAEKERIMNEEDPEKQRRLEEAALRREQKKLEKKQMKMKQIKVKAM
UniProt Q6P4E1: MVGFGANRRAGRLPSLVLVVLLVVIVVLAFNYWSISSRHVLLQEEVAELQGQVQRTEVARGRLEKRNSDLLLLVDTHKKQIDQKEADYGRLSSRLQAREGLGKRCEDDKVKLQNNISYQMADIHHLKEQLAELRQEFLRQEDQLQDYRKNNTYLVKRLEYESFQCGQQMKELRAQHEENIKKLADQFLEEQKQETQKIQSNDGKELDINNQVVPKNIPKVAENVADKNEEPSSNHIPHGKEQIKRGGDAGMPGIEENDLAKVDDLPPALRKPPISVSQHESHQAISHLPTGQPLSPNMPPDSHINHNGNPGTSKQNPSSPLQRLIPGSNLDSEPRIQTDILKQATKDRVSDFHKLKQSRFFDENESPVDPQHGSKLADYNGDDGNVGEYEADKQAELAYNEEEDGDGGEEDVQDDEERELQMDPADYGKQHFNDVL
UniProt Q96CT7: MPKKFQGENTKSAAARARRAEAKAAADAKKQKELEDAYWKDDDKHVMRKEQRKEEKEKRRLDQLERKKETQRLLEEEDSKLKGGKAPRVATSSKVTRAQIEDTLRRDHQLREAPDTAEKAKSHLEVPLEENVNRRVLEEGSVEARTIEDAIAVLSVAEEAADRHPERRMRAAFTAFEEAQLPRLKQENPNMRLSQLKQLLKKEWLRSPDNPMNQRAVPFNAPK
UniProt P08174: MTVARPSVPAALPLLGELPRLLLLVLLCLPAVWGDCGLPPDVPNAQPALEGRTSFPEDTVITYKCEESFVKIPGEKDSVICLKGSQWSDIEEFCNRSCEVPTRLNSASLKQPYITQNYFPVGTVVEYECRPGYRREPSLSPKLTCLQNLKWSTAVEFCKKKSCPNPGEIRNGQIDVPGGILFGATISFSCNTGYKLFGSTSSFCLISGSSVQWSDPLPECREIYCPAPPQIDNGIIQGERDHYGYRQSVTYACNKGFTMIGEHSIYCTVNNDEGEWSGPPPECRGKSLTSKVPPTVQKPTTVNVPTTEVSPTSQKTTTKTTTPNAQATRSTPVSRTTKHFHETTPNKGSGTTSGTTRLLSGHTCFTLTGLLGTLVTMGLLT
UniProt Q8IVM0: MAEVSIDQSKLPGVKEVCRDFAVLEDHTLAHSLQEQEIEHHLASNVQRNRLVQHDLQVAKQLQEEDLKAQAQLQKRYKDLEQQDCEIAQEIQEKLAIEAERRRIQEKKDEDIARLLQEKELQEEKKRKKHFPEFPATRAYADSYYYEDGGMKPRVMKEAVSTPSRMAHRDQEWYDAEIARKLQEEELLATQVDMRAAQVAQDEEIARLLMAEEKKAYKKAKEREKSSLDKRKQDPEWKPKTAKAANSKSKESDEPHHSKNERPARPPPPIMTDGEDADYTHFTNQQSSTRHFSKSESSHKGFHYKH

Legend:
Assay in all cases: log2 fold change, soluble protein after heating vs DMSO (PISA); higher = thermal stabilisation; K562 lysate, 10 uM; active = over 0.2 and 3.5 SD of the protein, either way, in both replicates (recomputed)
lapatinib = compound: CS(=O)(=O)CCNCc1ccc(-c2ccc3ncnc(Nc4ccc(OCc5cccc(F)c5)c(Cl)c4)c3c2)o1 [lapatinib]
Summary of the method: (§1)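 Soluble protein was defined as the supernatant remaining after 21,000xg for 90 min, following pooling of heated aliquots and adjustment to 0.5% NP-40 at 4°C. Before that, crude K562 extract at 1 mg/mL protein in PBS pH 7.4 with 1 mM MgCl2 was treated with 10 μM compound for 30 min and heated for 3 min across 48°C-58°C. Quantification used TMTpro 16plex LC-MS/MS with channel sums equalised, and values are log-two fold changes in thermal stability relative to solvent controls from duplicates.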

pictilisib = compound: CS(=O)(=O)N1CCN(Cc2cc3nc(-c4cccc5[nH]ncc45)nc(N4CCOCC4)c3s2)CC1 [pictilisib]
Summary of the method: as §1

crizotinib = compound: C[C@@H](Oc1cc(-c2cnn(C3CCNCC3)c2)cnc1N)c1c(Cl)ccc(F)c1Cl [crizotinib]
Summary of the method: as §1

[1] = compound: C[C@H](C1=CC=C(C=C1)C(=O)NC2=C3C=CNC3=NC=C2)N
Summary of the method: as §1

duvelisib = compound: C[C@H](Nc1ncnc2nc[nH]c12)c1cc2cccc(Cl)c2c(=O)n1-c1ccccc1 [duvelisib]
Summary of the method: as §1

gandotinib = compound: Cc1cc(Nc2cc(CN3CCOCC3)c3nc(C)c(Cc4ccc(Cl)cc4F)n3n2)n[nH]1 [gandotinib]
Summary of the method: as §1

tozasertib = compound: Cc1cc(Nc2cc(N3CCN(C)CC3)nc(Sc3ccc(NC(=O)C4CC4)cc3)n2)n[nH]1 [tozasertib]
Summary of the method: as §1

doramapimod = compound: Cc1ccc(-n2nc(C(C)(C)C)cc2NC(=O)Nc2ccc(OCCN3CCOCC3)c3ccccc23)cc1 [doramapimod]
Summary of the method: as §1

bafetinib = compound: Cc1ccc(NC(=O)c2ccc(CN3CC[C@H](N(C)C)C3)c(C(F)(F)F)c2)cc1Nc1nccc(-c2cncnc2)n1 [bafetinib]
Summary of the method: as §1

[2] = compound: Cc1cccc(CC(=O)N2CCc3c2ccc(-c2cn(C)c4ncnc(N)c24)c3F)n1
Summary of the method: as §1

nilotinib = compound: Cc1cn(-c2cc(NC(=O)c3ccc(C)c(Nc4nccc(-c5cccnc5)n4)c3)cc(C(F)(F)F)c2)cn1 [nilotinib]
Summary of the method: as §1

[3] = compound: Cc1nc(Nc2n[nH]c3c2CN(C(=O)N[C@H](CN(C)C)c2ccccc2)C3(C)C)c2sccc2n1
Summary of the method: as §1

dasatinib = compound: Cc1nc(Nc2ncc(C(=O)Nc3c(C)cccc3Cl)s2)cc(N2CCN(CCO)CC2)n1 [dasatinib]
Summary of the method: as §1

[4] = compound: Cc1ncc(-c2ccnc(Nc3ccc(S(C)(=O)=O)cc3)n2)n1C(C)C
Summary of the method: as §1

[5] = compound: Cn1cc(-c2ccc3c(c2)CCN3C(=O)Cc2cccc(C(F)(F)F)c2)c2c(N)ncnc21
Summary of the method: as §1

quisinostat = compound: Cn1cc(CNCC2CCN(c3ncc(C(=O)NO)cn3)CC2)c2ccccc21 [quisinostat]
Summary of the method: as §1

tipifarnib = compound: Cn1cncc1[C@@](N)(c1ccc(Cl)cc1)c1ccc2c(c1)c(-c1cccc(Cl)c1)cc(=O)n2C [tipifarnib]
Summary of the method: as §1

[6] = compound: NC(=O)Nc1cc(-c2cccc(F)c2)sc1C(=O)N[C@H]1CCCNC1
Summary of the method: as §1

[7] = compound: NC(=O)c1cnc(N[C@@H]2CCCC[C@@H]2N)nc1Nc1cccc(-n2nccn2)c1
Summary of the method: as §1

[8] = compound: NC1(c2ccc(-c3nc4ccn5c(=O)[nH]nc5c4cc3-c3ccccc3)cc2)CCC1
Summary of the method: as §1

Measured: log2 fold change

CASTOR2 (UniProt A6NHX0)
inactive: lapatinib -0.033 | pictilisib -0.028 | crizotinib -0.013 | [1] -0.026 | duvelisib 0.011 | gandotinib 0.026 | tozasertib -0.065 | doramapimod -0.032 | bafetinib -0.077 | [2] -0.037 | nilotinib 0.06 | [3] -0.01 | dasatinib 0.012 | [4] 0.038 | [5] 0.007 | quisinostat 0.067 | tipifarnib -0.033 | [6] -0.03 | [7] 0.019 | [8] 0.019

CARD9 (UniProt Q9H257)
inactive: lapatinib -0.048 | pictilisib -0.035 | crizotinib -0.053 | [1] -0.016 | duvelisib -0.009 | gandotinib -0.032 | tozasertib 0.022 | doramapimod 0.032 | bafetinib -0.145 | [2] 0.03 | nilotinib 0.047 | [3] -0.037 | dasatinib -0.017 | [4] 0.028 | [5] 0 | quisinostat -0.032 | tipifarnib -0.035 | [6] 0.005 | [7] 0.034 | [8] -0.007

CCAR1 (UniProt Q8IX12)
inactive: lapatinib 0.005 | pictilisib -0.027 | crizotinib 0.022 | [1] -0.136 | duvelisib -0.03 | gandotinib 0.02 | tozasertib 0.014 | doramapimod -0.011 | bafetinib -0.019 | [2] 0.01 | nilotinib 0.013 | [3] 0 | dasatinib -0.049 | [4] -0.005 | [5] -0.006 | quisinostat 0.029 | tipifarnib -0.028 | [6] 0.007 | [7] -0.001 | [8] 0.018

CC2D1B isoform 2 (UniProt Q5T0F9)
inactive: lapatinib 0.017 | pictilisib -0.031 | crizotinib -0.03 | [1] -0.005 | duvelisib -0.014 | gandotinib 0.023 | tozasertib -0.026 | doramapimod 0.028 | bafetinib -0.021 | [2] -0.009 | nilotinib -0.021 | [3] 0.026 | dasatinib 0.023 | [4] -0.012 | [5] -0.025 | quisinostat -0.059 | tipifarnib 0.019 | [6] 0.001 | [7] 0.022 | [8] 0.007

CCDC82 (UniProt Q8N4S0)
inactive: lapatinib 0.078 | pictilisib -0.031 | crizotinib -0.035 | [1] -0.029 | duvelisib -0.005 | gandotinib -0.054 | tozasertib -0.019 | doramapimod -0.072 | bafetinib 0.053 | [2] 0.005 | nilotinib -0.017 | [3] 0.052 | dasatinib 0.051 | [4] 0.027 | [5] 0.075 | quisinostat -0.005 | tipifarnib -0.074 | [6] -0.012 | [7] 0.117 | [8] -0.105

CCDC186 (UniProt Q7Z3E2)
active: [1] 0.295
inactive: lapatinib -0.056 | pictilisib -0.004 | crizotinib 0.006 | duvelisib 0.022 | gandotinib -0.061 | tozasertib 0 | doramapimod -0.01 | bafetinib -0.047 | [2] -0.064 | nilotinib -0.046 | [3] -0.056 | dasatinib -0.014 | [4] 0.03 | [5] 0.043 | quisinostat -0.03 | tipifarnib -0.01 | [6] 0.033 | [7] -0.017 | [8] 0.001

Random excerpt: 2 records from the list.
CCAR1 (UniProt Q8IX12)
inactive: lapatinib 0.005 | pictilisib -0.027 | crizotinib 0.022 | [1] -0.136 | duvelisib -0.03 | gandotinib 0.02 | tozasertib 0.014 | doramapimod -0.011 | bafetinib -0.019 | [2] 0.01 | nilotinib 0.013 | [3] 0 | dasatinib -0.049 | [4] -0.005 | [5] -0.006 | quisinostat 0.029 | tipifarnib -0.028 | [6] 0.007 | [7] -0.001 | [8] 0.018

CC2D1B isoform 2 (UniProt Q5T0F9)
inactive: lapatinib 0.017 | pictilisib -0.031 | crizotinib -0.03 | [1] -0.005 | duvelisib -0.014 | gandotinib 0.023 | tozasertib -0.026 | doramapimod 0.028 | bafetinib -0.021 | [2] -0.009 | nilotinib -0.021 | [3] 0.026 | dasatinib 0.023 | [4] -0.012 | [5] -0.025 | quisinostat -0.059 | tipifarnib 0.019 | [6] 0.001 | [7] 0.022 | [8] 0.007

The list continues:

CAVIN1 (UniProt Q6NZI2)
inactive: lapatinib -0.011 | pictilisib 0.009 | crizotinib 0.022 | [1] 0.006 | duvelisib -0.018 | gandotinib -0.062 | tozasertib -0.038 | doramapimod 0.003 | bafetinib -0.004 | [2] -0.024 | nilotinib 0.004 | [3] 0.002 | dasatinib 0.038 | [4] 0.026 | [5] -0.022 | quisinostat 0.003 | tipifarnib 0.051 | [6] 0.009 | [7] -0.011 | [8] -0.028

CBFB (UniProt Q13951)
inactive: lapatinib -0.016 | pictilisib -0.073 | crizotinib 0.021 | [1] 0.033 | duvelisib -0.01 | gandotinib -0.082 | tozasertib 0.054 | doramapimod 0.006 | bafetinib 0.05 | [2] 0.016 | nilotinib 0.05 | [3] -0.014 | dasatinib 0.017 | [4] 0.007 | [5] -0.012 | quisinostat -0.045 | tipifarnib -0.008 | [6] 0.007 | [7] -0.01 | [8] 0.028

CCDC43 (UniProt Q96MW1)
inactive: lapatinib 0.012 | pictilisib -0.004 | crizotinib 0.027 | [1] -0.027 | duvelisib 0.007 | gandotinib 0.02 | tozasertib 0.024 | doramapimod 0.063 | bafetinib 0.008 | [2] 0.045 | nilotinib -0.019 | [3] 0.027 | dasatinib -0.044 | [4] -0.026 | [5] 0.018 | quisinostat -0.026 | tipifarnib 0.023 | [6] -0.032 | [7] 0.005 | [8] 0

CCDC47 (UniProt Q96A33)
inactive: lapatinib -0.05 | pictilisib 0.005 | crizotinib -0.016 | [1] -0.012 | duvelisib -0.03 | gandotinib -0.145 | tozasertib -0.009 | doramapimod -0.018 | bafetinib -0.031 | [2] 0.049 | nilotinib -0.012 | [3] -0.009 | dasatinib -0.016 | [4] 0.025 | [5] -0.009 | quisinostat 0.006 | tipifarnib -0.025 | [6] 0.014 | [7] 0.019 | [8] -0.023

CASC4 (UniProt Q6P4E1)
inactive: lapatinib -0.038 | pictilisib 0.069 | crizotinib 0.019 | [1] -0.088 | duvelisib 0.051 | gandotinib 0.016 | tozasertib 0.067 | doramapimod 0.057 | bafetinib -0.045 | [2] 0.02 | nilotinib -0.072 | [3] -0.006 | dasatinib 0.037 | [4] 0.053 | [5] 0.029 | quisinostat 0.021 | tipifarnib -0.033 | [6] -0.024 | [7] 0.035 | [8] -0.011

CCDC124 (UniProt Q96CT7)
inactive: lapatinib -0.012 | pictilisib -0.002 | crizotinib 0.037 | [1] 0.07 | duvelisib -0.003 | gandotinib -0.017 | tozasertib 0.001 | doramapimod 0.017 | bafetinib 0.054 | [2] -0.045 | nilotinib 0.028 | [3] -0.012 | dasatinib 0.008 | [4] 0.018 | [5] -0.021 | quisinostat 0.021 | tipifarnib 0.071 | [6] -0.014 | [7] -0.02 | [8] -0.027

CBWD5 (UniProt Q5RIA9)
inactive: lapatinib 0.025 | pictilisib -0.022 | crizotinib -0.02 | [1] -0.038 | duvelisib 0.022 | gandotinib -0.041 | tozasertib 0.003 | doramapimod -0.015 | bafetinib 0.007 | [2] 0.098 | nilotinib 0.043 | [3] -0.01 | dasatinib -0.019 | [4] 0.004 | [5] -0.005 | quisinostat -0.068 | tipifarnib -0.013 | [6] 0.022 | [7] 0.007 | [8] 0.019

CD55 isoform 7 (UniProt P08174)
inactive: lapatinib -0.028 | pictilisib -0.01 | crizotinib -0.018 | [1] -0.067 | duvelisib 0.087 | gandotinib 0.081 | tozasertib -0.023 | doramapimod 0.05 | bafetinib -0.012 | [2] 0.059 | nilotinib 0.014 | [3] 0.003 | dasatinib 0.022 | [4] 0.001 | [5] 0.042 | quisinostat -0.056 | tipifarnib -0.042 | [6] -0.041 | [7] -0.021 | [8] 0.009

CCDC50 isoform 2 (UniProt Q8IVM0)
inactive: lapatinib -0.022 | pictilisib 0.01 | crizotinib 0.033 | [1] -0.014 | duvelisib 0.003 | gandotinib 0.025 | tozasertib 0.065 | doramapimod -0.003 | bafetinib -0.026 | [2] -0.02 | nilotinib -0.055 | [3] 0.019 | dasatinib 0.008 | [4] -0.002 | [5] 0.076 | quisinostat -0.008 | tipifarnib 0.017 | [6] -0.014 | [7] -0.003 | [8] 0.057
